# Test results from US8110687B2, “Bicyclic compounds with kinase inhibitory activity” (Millennium Pharmaceuticals, Inc., priority 2005, dated 2012).
# Protein sequences, listed by entry. Tags and fused reporters are not part of them.
# UniProt P15056, whole entry, stated change not applied: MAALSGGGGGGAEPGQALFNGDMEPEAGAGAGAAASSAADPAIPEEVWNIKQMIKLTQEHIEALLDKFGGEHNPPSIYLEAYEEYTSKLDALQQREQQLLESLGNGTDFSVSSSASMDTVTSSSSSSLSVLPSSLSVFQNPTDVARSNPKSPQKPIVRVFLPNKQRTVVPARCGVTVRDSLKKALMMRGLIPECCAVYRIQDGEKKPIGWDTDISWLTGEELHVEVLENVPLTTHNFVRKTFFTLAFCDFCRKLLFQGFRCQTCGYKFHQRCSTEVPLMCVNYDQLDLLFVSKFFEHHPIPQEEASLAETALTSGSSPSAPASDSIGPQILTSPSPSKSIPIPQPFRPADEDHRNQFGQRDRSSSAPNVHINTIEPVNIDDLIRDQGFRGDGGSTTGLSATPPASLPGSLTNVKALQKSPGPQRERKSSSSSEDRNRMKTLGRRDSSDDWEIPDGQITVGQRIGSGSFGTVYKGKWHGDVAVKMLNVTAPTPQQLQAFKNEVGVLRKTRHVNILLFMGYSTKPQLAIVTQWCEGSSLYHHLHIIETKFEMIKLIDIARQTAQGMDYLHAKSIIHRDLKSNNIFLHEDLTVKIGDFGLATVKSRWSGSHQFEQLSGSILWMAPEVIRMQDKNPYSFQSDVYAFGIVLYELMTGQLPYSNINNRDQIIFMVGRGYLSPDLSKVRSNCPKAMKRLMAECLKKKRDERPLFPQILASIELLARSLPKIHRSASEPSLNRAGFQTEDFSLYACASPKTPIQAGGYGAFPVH
# Like-named read-outs stand apart in the source and are kept apart here. Some of these results come from one statement about several compounds together.
# Target: B-Raf (V599E or Wild Type) (Homo sapiens, UniProt P15056)
# Assay: B-Raf Flash Plate assay
# Type: biochemical
# Settings: Peptide 118, 0.5 μM ATP, 60 minutes
# [1] = read-out: IC50, inhibition of the enzyme in B-Raf Flash Plate assay
# [2] = read-out: IC50 in B-Raf Flash Plate assay
Structure (SMILES),IC50 [1] [nM],IC50 [2] [nM]
"CNC(=O)c1cc(Oc2ccc3c(c2)CC(C(=O)Nc2cc(CN4CCN(C)CC4)cc(C(F)(F)F)c2)CC3)ccn1 (stereo not drawn) [Compound I-182, N-methyl-4-{[7-({[3-[(4-methylpiperazin-1-yl)methyl]-5-(trifluoromethyl)phenyl]amino}carbonyl)-5,6,7,8-tetrahydronaphthalen-2-yl]oxy}pyridine-2-carboxamide]",≤ 1000,< 50
"NCc1ccc(NC(=O)c2cnc3ccc(Oc4ccnc(-c5nc(CO)c[nH]5)c4)cc3c2)cc1C(F)(F)F [Compound I-266, N-[4-(aminomethyl)-3-(trifluoromethyl)phenyl]-6-({2-[4-(hydroxymethyl)-1H-imidazol-2-yl]pyridin-4-yl}oxy)quinoline-3-carboxamide]",≤ 1000,< 50
"CC(=O)Nc1cc(Oc2ccc3ccc(C(=O)Nc4cc(CN)cc(C(F)(F)F)c4)cc3c2)ccn1 [Compound I-215, 7-{[2-(acetylamino)pyridin-4-yl]oxy}-N-[3-(aminomethyl)-5-(trifluoromethyl)phenyl]-2-naphthamide]",≤ 1000,< 50
"CC(C)(C)c1cccc(NC(=O)c2ccc3ccc(Oc4ccnc(C5=NCCN5)c4)cc3n2)c1 [Compound I-50, N-(3-tert-butylphenyl)-7-{[2-(4,5-dihydro-1H-imidazol-2-yl)pyridin-4-yl]oxy}quinoline-2-carboxamide]",≤ 1000,
"CC(C)(C)c1cccc(NC(=O)c2cnc3ccc(Oc4ccnc(C#N)c4)cc3c2)c1 [Compound I-448, N-(3-tert-butylphenyl)-6-[(2-cyanopyridin-4-yl)oxy]quinoline-3-carboxamide]",≤ 1000,< 50
"CC(=O)Nc1cc(Oc2cc3c(cc2F)CCC(C(=O)Nc2cc(CN)cc(C(F)(F)F)c2)C3)ccn1 (stereo not drawn) [Compound I-329, 7-{[2-(acetylamino)pyridin-4-yl]oxy}-N-[3-(aminomethyl)-5-(trifluoromethyl)phenyl]-6-fluoro-1,2,3,4-tetrahydronaphthalene-2-carboxamide]",≤ 1000,< 50
"O=C(Nc1cc(CNCCO)cc(C(F)(F)F)c1)C1CCc2ccc(Oc3ccnc(NC(=O)C4CC4)c3)cc2C1 (stereo not drawn) [Compound I-226, 7-({2-[(cyclopropylcarbonyl)amino]pyridin-4-yl}oxy)-N-[3-{[(2-hydroxyethyl)amino]methyl}-5-(trifluoromethyl)phenyl]-1,2,3,4-tetrahydronaphthalene-2-carboxamide]",≤ 1000,< 50
"O=C(Nc1cc(OCCN2CCCC2)cc(C(F)(F)F)c1)C1CCc2ccc(Oc3ccnc(N4CCNCC4)c3)cc2C1 (stereo not drawn) [Compound I-237, 7-[(2-piperan-1-ylpyridin-4-yl)oxy]-N-[3-(2-pyrrolidin-1-ylethoxy)-5-(trifluoromethyl)phenyl]-1,2,3,4-tetrahydronaphthalene-2-carboxamide]",≤ 1000,< 50
"CNC(=O)c1cc(Oc2ccc3ncc(C(=O)Nc4ccc(CN)c(C(F)(F)F)c4)cc3c2)ccn1 [Compound I-161, N-[4-(aminomethyl)-3-(trifluoromethyl)phenyl]-6-({2-[(methylamino)carbonyl]pyridin-4-yl}oxy)quinoline-3-carboxamide]",≤ 1000,< 50
"O=C(Nc1ccc(Br)c(C(F)(F)F)c1)c1ccc2ccc(Oc3ccnc(C4=NCCN4)c3)cc2c1 [Compound I-19, N-[4-bromo-3-(trifluoromethyl)phenyl]-7-{[2-(4,5-dihydro-1H-imidazol-2-yl)pyridin-4-yl]oxy}-2-naphthamide]",≤ 1000,< 50
"CC(C)(C)c1cccc(NC(=O)c2cnc3ccc(Oc4ccnc(C(=N)N)c4)cc3c2)c1 [Compound I-335, 6-({2-[amino(imino)methyl]pyridin-4-yl}oxy)-N-(3-tert-butylphenyl)quinoline-3-carboxamide]",≤ 1000,< 50
"CCN(CC)Cc1cc(NC(=O)C2CCc3ccc(Oc4ccnc(NC(=O)C5CC5)c4)cc3C2)cc(C(F)(F)F)c1 (stereo not drawn) [Compound I-360, 7-({2-[(cyclopropylcarbonyl)amino]pyridin-4-yl}oxy)-N-[3-[(diethylamino)methyl]-5-(trifluoromethyl)phenyl]-1,2,3,4-tetrahydronaphthalene-2-carboxamide]",≤ 1000,< 50
"CNCc1cc(NC(=O)N2CCc3ccc(Oc4ccnc(NC(=O)C5CC5)c4)cc3C2)cc(C(F)(F)F)c1 [Compound I-405, 7-({2-[(cyclopropylcarbonyl)amino]pyridin-4-yl}oxy)-N-[3-[(methylamino)methyl]-5-(trifluoromethyl)phenyl]-3,4-dihydroisoquinoline-2(1H)-carboxamide]",≤ 1000,< 50
"CC(C)(C)c1cccc(NC(=O)C2CCc3ccc(Oc4ccnc(CNC(=O)CN5CCCC5)c4)cc3C2)c1 (stereo not drawn) [Compound I-387, N-(3-tert-butylphenyl)-7-[(2-{[(pyrrolidin-1-ylacetyl)amino]methyl}pyridin-4-yl)oxy]-1,2,3,4-tetrahydronaphthalene-2-carboxamide]",≤ 1000,< 50
"CN1CCN(c2cc(NC(=O)C3CCc4ccc(Oc5ccnc(NC(=O)C6CC6)c5)cc4C3)cc(C(F)(F)F)c2)CC1 (stereo not drawn) [Compound I-456, 7-({2-[(cyclopropylcarbonyl)amino]pyridin-4-yl}oxy)-N-[3-(4-methylpiperazin-1-yl)-5-(trifluoromethyl)phenyl]-1,2,3,4-tetrahydronaphthalene-2-carboxamide]",≤ 1000,< 50
"NCc1cc(NC(=O)C2CCc3ccc(Oc4ccnc(N)c4)cc3C2)cc(C(F)(F)F)c1 (stereo not drawn) [Compound I-271, N-[3-(aminomethyl)-5-(trifluoromethyl)phenyl]-7-[(2-aminopyridin-4-yl)oxy]-1,2,3,4-tetrahydronaphthalene-2-carboxamide]",≤ 1000,< 50

# Now from value to molecule:
IC50 [1] [nM],IC50 [2] [nM],Structure (SMILES)
≤ 1000,< 50,"CC(=O)Nc1cc(Oc2ccc3c(c2)CC(C(=O)Nc2cc(C4CCCN4)cc(C(F)(F)F)c2)CC3)ccn1 (stereo not drawn) [Compound I-243, 7-{[2-(acetylamino)pyridin-4-yl]oxy}-N-[3-pyrrolidin-2-yl-5-(trifluoromethyl)phenyl]-1,2,3,4-tetrahydronaphthalene-2-carboxamide]"
≤ 1000,< 50,"NCc1cc(NC(=O)C2CCc3ccc(Oc4ccnc(NC(=O)C5CCC5)c4)cc3C2)cc(C(F)(F)F)c1 (stereo not drawn) [Compound I-240, N-[3-(aminomethyl)-5-(trifluoromethyl)phenyl]-7-({2-[(cyclobutylcarbonyl)amino]pyridin-4-yl}oxy)-1,2,3,4-tetrahydronaphthalene-2-carboxamide]"
≤ 1000,< 50,"CNCC(=O)NCc1cc(NC(=O)C2CCc3ccc(Oc4ccnc(C(=O)NC)c4)cc3C2)cc(C(F)(F)F)c1 (stereo not drawn) [Compound I-274, N-methyl-4-{[7-({[3-({[(methylamino)acetyl]amino}methyl)-5-(trifluoromethyl)phenyl]amino}carbonyl)-5,6,7,8-tetrahydronaphthalen-2-yl]oxy}pyridine-2-carboxamide]"
≤ 1000,< 50,"COC(=O)Nc1cc(Oc2ccc3c(c2)CC(C(=O)Nc2cccc(C(C)(C)C)c2)CC3)ccn1 (stereo not drawn) [Compound I-253, methyl {4-[(7-{[(3-tert-butylphenyl)amino]carbonyl}-5,6,7,8-tetrahydronaphthalen-2-yl)oxy]pyridin-2-yl}carbamate]"
≤ 1000,< 50,"CC(C)(C)c1cc(NC(=O)c2ccc3ccc(Oc4ccnc(N)c4)cc3c2)on1 [Compound I-139, 7-[(2-aminopyridin-4-yl)oxy]-N-(3-tert-butylisoxazol-5-yl)-2-naphthamide]"
≤ 1000,,"CNC(=O)c1cc(Oc2ccc3c(c2)CC(C(=O)Nc2cccc(CN)c2)CC3)ccn1 (stereo not drawn) [Compound I-51, 4-{[7-({[3-(aminomethyl)phenyl]amino}carbonyl)-5,6,7,8-tetrahydronaphthalen-2-yl]oxy}-N-methylpyridine-2-carboxamide]"
≤ 1000,< 50,"CNC(=O)c1cc(Oc2ccc3c(c2)CC(C(=O)Nc2cc(OCCN4CCCC4)cc(C(F)(F)F)c2)CC3)ccn1 (stereo not drawn) [Compound I-15, N-methyl-4-{[7-({[3-(2-pyrrolidin-1-ylethoxy)-5-(trifluoromethyl)phenyl]amino}carbonyl)-5,6,7,8-tetrahydronaphthalen-2-yl]oxy}pyridine-2-carboxamide]"
≤ 1000,< 50,"CNC(=O)c1cc(Oc2ccc3ccc(C(=O)Nc4cc(OCCN(C)C)cc(C(F)(F)F)c4)cc3c2)ccn1 [Compound I-49, 4-{[7-({[3-[2-(dimethylamino)ethoxy]-5-(trifluoromethyl)phenyl]amino}carbonyl)-2-naphthyl]oxy}-N-methylpyridine-2-carboxamide]"
≤ 1000,< 50,"CNC(=O)c1cc(Oc2ccc3c(c2)CC(C(=O)Nc2cc(CNC(=O)CN(C)C)cc(C(F)(F)F)c2)CC3)ccn1 (stereo not drawn) [Compound I-284, 4-{[7-({[3-({[(dimethylamino)acetyl]amino}methyl)-5-(trifluoromethyl)phenyl]amino}carbonyl)-5,6,7,8-tetrahydronaphthalen-2-yl]oxy}-N-methylpyridine-2-carboxamide]"
≤ 1000,< 50,"CC(=O)Nc1cc(Oc2ccc3c(c2)CC(C(=O)Nc2cc(OCCN4CCCC4)cc(C(F)(F)F)c2)CC3)ccn1 (stereo not drawn) [Compound I-147, 7-{[2-(acetylamino)pyridin-4-yl]oxy}-N-[3-(2-pyrrolidin-1-ylethoxy)-5-(trifluoromethyl)phenyl]-1,2,3,4-tetrahydronaphthalene-2-carboxamide]"
≤ 1000,< 50,"CC(C(=O)Nc1cc(Oc2ccc3ccc(C(=O)Nc4cccc(C(C)(C)C)c4)cc3c2)ccn1)N1CCCC1 (stereo not drawn) [Compound I-207, N-(3-tert-butylphenyl)-7-({2-[(2-pyrrolidin-1-ylpropanoyl)amino]pyridin-4-yl}oxy)-2-naphthamide]"
≤ 1000,< 50,"CC(C)(C)c1cccc(NC(=O)c2ccc3ccc(Oc4ccnc(NC(=O)CN5CCOCC5)c4)cc3c2)c1 [Compound I-394, N-(3-tert-butylphenyl)-7-({2-[(morpholin-4-ylacetyl)amino]pyridin-4-yl}oxy)-2-naphthamide]"
